In patent publication US12403136B2, “Cannabinoid derivatives as pharmaceutically active compounds and methods of preparation thereof” (JAZZ PHARMACEUTICALS RESEARCH UK LIMITED, priority 2019, dated 2025):

Tested on: mouse model of generalised seizure (tonic hind limb extensor convulsions)
Assay: Maximal electroshock seizure threshold (MEST) test in the mouse
Conditions: diazepam 2.5 mg/kg i.p., test 30 min post dose, vehicle CC50 21.0 mA
Method: The efficacy of exemplary cannabinoid derivatives according to Formula I and Formula II were tested in a mouse model of generalised seizure, the maximal electroshock seizure threshold (MEST) test.
The maximal electroshock seizure threshold (MEST) test is widely utilized preclinically to evaluate pro- or anti-convulsant properties of test compounds (Loscher et al., 1991).
In the MEST test the ability of a drug to alter the seizure threshold current required to induce hind limb tonic extensor convulsions is measured according to an “up and down” method of shock titration (Kimball et al., 1957). An increase in seizure threshold is indicative of anti-convulsant effect.
Conversely, a reduction in seizure threshold is indicative of a pro-convulsant effect as observed with known convulsant agents such as picrotoxin.
The ability of a test compound to alter the stimulus intensity, expressed as current (mA), required to induce the presence of tonic hind limb extensor convulsions, is assessed in the MEST.
Naïve mice were acclimatised to the procedure room in their home cages for up to 7 days, with food and water available ad libitum. […]
Test compound effects were also calculated as percentage change in CC50 from the vehicle control group.
Significant difference between drug-treated animals and controls were assessed according to Litchfield and Wilcoxon (1949).

In the case of `CN1C(=O)CN=C(c2ccccc2)c2cc(Cl)ccc21` [Diazepam, diazepam, reference compound], the “CC50 +/− SEM” value is reported as 35.0 +/− 1.1 mA and the “CC50 +/− SEM” value (listed as diazepam) is reported as 35 mA.
